Results as given in patent US20170369807A1, “Ionic Liquid, Lubricant, and Magnetic Recording Medium” (Dexerials Corporation, priority 2016, published 2017).

Experiments:
[1] = Disk durability test (CSS durability test); details: 25° C., 60% RH; after heating test 3 minutes at 300° C.
[2] = Tape durability test (coefficient of friction, still durability, shuttle durability); details: for Still durability after heating test / Coefficient of friction after 100 runs after heating test / Shuttle durability after heating: after heating 10 minutes at 100° C.

Compound	CSS durability after heating [1]	Still durability ([2]; 40° C., 30% RH)	Still durability after heating test ([2]; 40° C., 30% RH)	Coefficient of friction after 100 runs ([2]; 40° C., 90% RH)	Shuttle durability ([2]; 40° C., 90% RH)	Coefficient of friction after 100 runs after heating test ([2]; 40° C., 90% RH)	Shuttle durability after heating ([2]; 40° C., 90% RH)	Coefficient of friction after 100 runs ([2]; −5° C.)	Shuttle durability ([2]; −5° C.)	Still durability ([2]; −5° C.)	Coefficient of friction after 100 runs after heating test ([2]; −5° C.)	Shuttle durability after heating ([2]; −5° C.)	Still durability after heating test ([2]; −5° C.)
nonafluorobutanesulfonic acid-trimethyloctadecyl ammonium [Comp. Ex. 5A]	>50,000 times												
nonafluorobutanesulfonic acid-N-methyloctadecyl ammonium [Comp. Ex. 4A]	>50,000 times												
CCCCCCCCCCCCCCCCCCN(C)C.O=S(=O)(NS(=O)(=O)C(F)(F)C(F)(F)C(F)(F)C(F)(F)F)C(F)(F)C(F)(F)C(F)(F)C(F)(F)F [Ex. 1A, bis(nonafluorobutanesulfonyl)imide-N,N-dimethyl-octadecyl ammonium]		>60 min	>60 min	0.23	>200 times	0.23	>200 times	0.21	>200 times	>60 min	0.21	>200 times	>60 min
CCCCCCCCCCCCCCCCCCN.O=S(=O)(NS(=O)(=O)C(F)(F)C(F)(F)C(F)(F)C(F)(F)F)C(F)(F)C(F)(F)C(F)(F)C(F)(F)F [Comp. Ex. 2A, bis(nonafluorobutanesulfonyl)imide-octadecyl ammonium]		>60 min	>60 min	0.22	>200 times	0.24	>200 times	0.20	>200 times	>60 min	0.21	>200 times	>60 min
CCCCCCCCCCCCCCCCCCN.O=S1(=O)NS(=O)(=O)C(F)(F)C(F)(F)C1(F)F [Comp. Ex. 3A, hexafluorocyclopropane-1,3-bis(sulfonyl)imide-octadecyl ammonium]		>60 min	>60 min	0.24	>200 times	0.24	>200 times	0.21	>200 times	>60 min	0.21	>200 times	>60 min
nonafluorobutanesulfonic acid-octadecyl ammonium [Comp. Ex. 1A]	>50,000 times	>60 min	>60 min	0.23	>200 times	0.23	>200 times	0.19	>200 times	>60 min	0.20	>200 times	>60 min
pentadecafluorooctanoic acid octadecyl ammonium [Comp. Ex. 6A]	891 times	>60 min	16 min	0.25	>200 times	0.51	23 times		>200 times	>60 min	0.45	30 times	12 min
bis(nonafluorobutanesulfonyl)imide-N,N-dimethyl-dodecyl ammonium [Ex. 2A]	>50,000 times												
